Here are results for 1 substance from paper PMC12015365.

Sequences of proteins named here, by UniProt entry; tags and fusion partners are left off.
UniProt Q13200: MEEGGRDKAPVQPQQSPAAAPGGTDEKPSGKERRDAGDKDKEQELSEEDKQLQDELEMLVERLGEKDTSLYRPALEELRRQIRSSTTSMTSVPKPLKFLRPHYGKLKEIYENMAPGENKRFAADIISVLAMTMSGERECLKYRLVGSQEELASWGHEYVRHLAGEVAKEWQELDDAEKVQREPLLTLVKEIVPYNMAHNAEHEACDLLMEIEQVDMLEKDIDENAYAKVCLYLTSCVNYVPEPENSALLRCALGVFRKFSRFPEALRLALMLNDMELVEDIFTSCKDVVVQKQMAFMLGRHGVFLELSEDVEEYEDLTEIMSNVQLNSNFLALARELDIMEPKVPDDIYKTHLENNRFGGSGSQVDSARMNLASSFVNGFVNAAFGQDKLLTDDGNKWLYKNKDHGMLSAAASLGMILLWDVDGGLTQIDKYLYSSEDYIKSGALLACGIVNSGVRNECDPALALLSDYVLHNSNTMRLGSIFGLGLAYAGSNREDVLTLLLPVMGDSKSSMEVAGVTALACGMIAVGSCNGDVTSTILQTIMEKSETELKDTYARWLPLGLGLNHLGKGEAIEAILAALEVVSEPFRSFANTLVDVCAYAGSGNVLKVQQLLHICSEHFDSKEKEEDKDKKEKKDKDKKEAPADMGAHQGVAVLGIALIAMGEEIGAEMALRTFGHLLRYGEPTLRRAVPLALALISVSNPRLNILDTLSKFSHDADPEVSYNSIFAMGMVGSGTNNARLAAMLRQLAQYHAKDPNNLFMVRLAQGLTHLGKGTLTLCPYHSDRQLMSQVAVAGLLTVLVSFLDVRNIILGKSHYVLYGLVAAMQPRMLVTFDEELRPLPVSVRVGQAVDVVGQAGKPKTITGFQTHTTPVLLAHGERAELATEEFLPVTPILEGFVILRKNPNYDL

The target in the assay is T1, glucosidase alpha, neutral C (GANC) tagged with Flag (human) (UniProt Q8TET4).
T1 sequence: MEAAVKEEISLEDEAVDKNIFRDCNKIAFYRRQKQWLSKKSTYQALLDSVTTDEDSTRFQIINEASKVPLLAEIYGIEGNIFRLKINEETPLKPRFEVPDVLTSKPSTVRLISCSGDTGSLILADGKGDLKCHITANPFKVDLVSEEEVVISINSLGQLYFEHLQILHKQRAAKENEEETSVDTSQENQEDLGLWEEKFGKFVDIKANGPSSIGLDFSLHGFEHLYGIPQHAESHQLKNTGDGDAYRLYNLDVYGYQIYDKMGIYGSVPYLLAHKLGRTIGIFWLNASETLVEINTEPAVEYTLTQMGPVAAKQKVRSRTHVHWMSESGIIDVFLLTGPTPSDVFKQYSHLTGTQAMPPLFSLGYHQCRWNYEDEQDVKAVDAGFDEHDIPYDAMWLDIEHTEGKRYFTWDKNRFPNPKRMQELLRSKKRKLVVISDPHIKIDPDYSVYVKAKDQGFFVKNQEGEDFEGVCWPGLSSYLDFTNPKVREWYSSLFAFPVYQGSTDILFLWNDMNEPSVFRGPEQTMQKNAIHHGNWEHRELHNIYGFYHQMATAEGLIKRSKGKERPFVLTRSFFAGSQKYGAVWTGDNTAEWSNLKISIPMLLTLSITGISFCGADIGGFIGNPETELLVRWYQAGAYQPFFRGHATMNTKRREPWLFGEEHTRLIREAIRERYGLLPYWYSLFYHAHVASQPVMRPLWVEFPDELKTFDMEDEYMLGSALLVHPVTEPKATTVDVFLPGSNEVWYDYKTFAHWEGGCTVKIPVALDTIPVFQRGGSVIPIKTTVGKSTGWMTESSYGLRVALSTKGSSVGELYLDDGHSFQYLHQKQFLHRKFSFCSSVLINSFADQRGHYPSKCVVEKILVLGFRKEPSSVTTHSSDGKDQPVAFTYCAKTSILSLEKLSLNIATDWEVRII
Kind of assay: pull-down; both purified.

Results are given in words; binding and its absence hold for the method and conditions named. Some entries that bind do so weakly or less than the wild type. Tags and fused reporters may be left off the sequences shown.

Regarding “PSMD2 protein tagged with HA, purified from E. coli (from UniProt Q13200 1-908)”, the binding entry is on record as “binds”.
